Results on one substance are retold here after PMC6160001.

Sequences of proteins named here, by UniProt entry; tags and fusion partners are left off.
UniProt P04150: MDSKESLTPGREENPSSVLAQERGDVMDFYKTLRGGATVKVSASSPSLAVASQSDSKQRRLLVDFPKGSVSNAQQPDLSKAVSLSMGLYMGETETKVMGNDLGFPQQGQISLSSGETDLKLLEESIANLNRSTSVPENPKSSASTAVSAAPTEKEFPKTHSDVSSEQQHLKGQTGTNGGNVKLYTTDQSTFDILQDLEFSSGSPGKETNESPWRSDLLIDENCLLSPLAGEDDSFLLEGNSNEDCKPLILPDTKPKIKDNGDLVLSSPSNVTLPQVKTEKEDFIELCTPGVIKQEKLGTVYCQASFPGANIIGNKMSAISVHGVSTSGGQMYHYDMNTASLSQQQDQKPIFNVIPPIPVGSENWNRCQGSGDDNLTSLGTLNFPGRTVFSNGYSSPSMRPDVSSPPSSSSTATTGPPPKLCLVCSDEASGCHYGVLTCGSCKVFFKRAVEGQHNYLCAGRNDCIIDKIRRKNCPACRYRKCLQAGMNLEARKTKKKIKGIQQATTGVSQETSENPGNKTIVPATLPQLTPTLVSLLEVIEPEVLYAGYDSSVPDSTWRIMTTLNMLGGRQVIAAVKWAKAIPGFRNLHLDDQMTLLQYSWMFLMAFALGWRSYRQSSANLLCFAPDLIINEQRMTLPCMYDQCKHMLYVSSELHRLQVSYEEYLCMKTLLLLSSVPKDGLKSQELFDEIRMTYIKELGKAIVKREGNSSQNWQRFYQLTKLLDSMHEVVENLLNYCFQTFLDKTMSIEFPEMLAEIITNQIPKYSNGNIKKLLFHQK

This test concerns the target T1, halo-tagged REVERBa (UniProt P20393).
T1 sequence: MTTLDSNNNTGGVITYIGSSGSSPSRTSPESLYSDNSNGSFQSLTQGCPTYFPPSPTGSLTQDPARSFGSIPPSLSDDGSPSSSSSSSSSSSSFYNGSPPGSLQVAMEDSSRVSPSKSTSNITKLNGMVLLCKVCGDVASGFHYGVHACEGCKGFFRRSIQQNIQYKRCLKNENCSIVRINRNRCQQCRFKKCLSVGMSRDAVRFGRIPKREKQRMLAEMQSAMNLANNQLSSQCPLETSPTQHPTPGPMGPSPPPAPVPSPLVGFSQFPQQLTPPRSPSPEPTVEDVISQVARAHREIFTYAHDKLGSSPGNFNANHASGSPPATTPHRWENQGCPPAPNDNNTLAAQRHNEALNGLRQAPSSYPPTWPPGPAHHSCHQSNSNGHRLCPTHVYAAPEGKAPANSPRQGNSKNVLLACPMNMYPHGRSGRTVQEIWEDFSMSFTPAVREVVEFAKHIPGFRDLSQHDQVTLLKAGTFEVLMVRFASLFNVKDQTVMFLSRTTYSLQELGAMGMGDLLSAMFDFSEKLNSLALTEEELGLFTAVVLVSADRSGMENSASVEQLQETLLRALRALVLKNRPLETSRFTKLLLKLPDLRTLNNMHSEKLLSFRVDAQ
Description: co-IP; HEK293 cells transfected with halo-tagged REVERBa and/or halo-tagged GR; dex (100 nM) or DMSO for 1 hour; lysis in 150 mM NaCl, 20 mM Tris-HCl, 10% glycerol, 1% Triton X-100; precipitated with anti-REVERBa (GSK6F05) or anti-GR antibody, mouse or rabbit IgG as control; protein G or protein A magnetic beads, 4°C.

These are yes or no findings as the source states them, for the method shown. Binding seen in cells or lysates may run through a third protein. Some results given as binding are weak or reduced against the parent protein; the word gives no strength. Where a sequence is shown, tags or fusion partners need not be part of it.

Consider “halo-tagged GR (glucocorticoid receptor) (from UniProt P04150 1-777)”, for which the binding entry is recorded as “binds”.
